B1: SFB-tagged human HDGFRP3 (wild type) [human] / 53BP1, endogenous [human (endogenous in HEK293T, U2OS, MCF10A)] (parent complex)
chain 1: MARPRPREYKAGDLVFAKMKGYPHWPARIDELPEGAVKPPANKYPIFFFGTHETAFLGPKDLFPYKEYKDKFGKSNKRKGFNEGLWEIENNPGVKFTGYQAIQQQSSSETEGEGGNTADASSEEEGDRVEEDGKGKRKNEKAGSKRKKSYTSKKSSKQSRKSPGDEDDKDCKEEENKSSSEGGDAGNDTRNTTSDLQKTSEGT
chain 2: MDPTGSQLDSDFSQQDTPCLIIEDSQPESQVLEDDSGSHFSMLSRHLPNLQTHKENPVLDVVSNPEQTAGEERGDGNSGFNEHLKENKVADPVDSSNLDTCGSISQVIEQLPQPNRTSSVLGMSVESAPAVEEEKGEELEQKEKEKEEDTSGNTTHSLGAEDTASSQLGFGVLELSQSQDVEENTVPYEVDKEQLQSVTTNSGYTRLSDVDANTAIKHEEQSNEDIPIAEQSSKDIPVTAQPSKDVHVVKEQNPPPARSEDMPFSPKASVAAMEAKEQLSAQELMESGLQIQKSPEPEVLSTQEDLFDQSNKTVSSDGCSTPSREEGGCSLASTPATTLHLLQLSGQRSLVQDSLSTNSSDLVAPSPDAFRSTPFIVPSSPTEQEGRQDKPMDTSVLSEEGGEPFQKKLQSGEPVELENPPLLPESTVSPQASTPISQSTPVFPPGSLPIPSQPQFSHDIFIPSPSLEEQSNDGKKDGDMHSSSLTVECSKTSEIEPKNSPEDLGLSLTGDSCKLMLSTSEYSQSPKMESLSSHRIDEDGENTQIEDTEPMSPVLNSKFVPAENDSILMNPAQDGEVQLSQNDDKTKGDDTDTRDDISILATGCKGREETVAEDVCIDLTCDSGSQAVPSPATRSEALSSVLDQEEAMEIKEHHPEEGSSGSEVEEIPETPCESQGEELKEENMESVPLHLSLTETQSQGLCLQKEMPKKECSEAMEVETSVISIDSPQKLAILDQELEHKEQEAWEEATSEDSSVVIVDVKEPSPRVDVSCEPLEGVEKCSDSQSWEDIAPEIEPCAENRLDTKEEKSVEYEGDLKSGTAETEPVEQDSSQPSLPLVRADDPLRLDQELQQPQTQEKTSNSLTEDSKMANAKQLSSDAEAQKLGKPSAHASQSFCESSSETPFHFTLPKEGDIIPPLTGATPPLIGHLKLEPKRHSTPIGISNYPESTIATSDVMSESMVETHDPILGSGKGDSGAAPDVDDKLCLRMKLVSPETEASEESLQFNLEKPATGERKNGSTAVAESVASPQKTMSVLSCICEARQENEARSEDPPTTPIRGNLLHFPSSQGEEEKEKLEGDHTIRQSQQPMKPISPVKDPVSPASQKMVIQGPSSPQGEAMVTDVLEDQKEGRSTNKENPSKALIERPSQNNIGIQTMECSLRVPETVSAATQTIKNVCEQGTSTVDQNFGKQDATVQTERGSGEKPVSAPGDDTESLHSQGEEEFDMPQPPHGHVLHRHMRTIREVRTLVTRVITDVYYVDGTEVERKVTEETEEPIVECQECETEVSPSQTGGSSGDLGDISSFSSKASSLHRTSSGTSLSAMHSSGSSGKGAGPLRGKTSGTEPADFALPSSRGGPGKLSPRKGVSQTGTPVCEEDGDAGLGIRQGGKAPVTPRGRGRRGRPPSRTTGTRETAVPGPLGIEDISPNLSPDDKSFSRVVPRVPDSTRRTDVGAGALRRSDSPEIPFQAAAGPSDGLDASSPGNSFVGLRVVAKWSSNGYFYSGKITRDVGAGKYKLLFDDGYECDVLGKDILLCDPIPLDTEVTALSEDEYFSAGVVKGHRKESGELYYSIEKEGQRKWYKRMAVILSLEQGNRLREQYGLGPYEAVTPLTKAADISLDNLVEGKRKRRSNVSSPATPTASSSSSTTPTRKITESPRASMGVLSGKRKLITSEEERSPAKRGRKSATVKPGAVGAGEFVSPCESGDNTGEPSALEEQRGPLPLNKTLFLGYAFLLTMATTSDKLASRSKLPDGPTGSSEEEEEFLEIPPFNKQYTESQLRAGAGYILEDFNEAQCNTAYQCLLIADQHCRTRKYFLCLASGIPCVSHVWVHDSCHANQLQNYRNYLLPAGYSLEEQRILDWQPRENPFQNLKVLLVSDQQQNFLELWSEILMTGGAASVKQHHSSAHNKDIALGVFDVVVTDPSCPASVLKCAEALQLPVVSQEWVIQCLIVGERIGFKQHPKYKHDYVSH

Variants of: B1
Assay: proximity ligation assay (PLA); U2OS cells; 100 cells per experiment, n = 3; parent: 33; read off a plot

| response | Variant |
| --- | --- |
| ~5 dots/Nucleus | chain 1 Y22A, chain 1 W25A |

Source: paper PMC10018360 (2023)
